Taken from: PubChem BioAssay AID504791 (Drosophila RNAi Screening Center, 2011)
Screen: 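Genes whose knock-down strengthens or weakens small-RNA reporter silencing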 (primary screen). Cells: Drosophila S2-derived reporter cells. Reagent: long dsRNA against Drosophila genes, about 150-250 ng dsRNA per well (siRNA assay); about 80-120 ng (miRNA assay). Duration: about 5 days (siRNA assay); about 4 days (miRNA assay). Challenge: copper sulfate induction of reporters: 25 µM (siRNA assay); 200 mM stated (miRNA assay), 1-2 days before reading. Measured: 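Dual luciferase assay: Renilla to firefly signal ratio in each well, scaled to the mean ratio of its plate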. Call rule: 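a well was a first-pass pick when its plate-scaled ratio rose above 1.5 (siRNA assay) or 1.6 (miRNA assay), or dropped below 0.6; a gene counted only if two separate dsRNAs agreed on retest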.
The screen tested about 23,000 reagents; below is a random part of those that have a named target and a result. In the full data, 199 (0.86%) are marked active. 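Plate-scaled ratios behind the calls are not deposited; printed light signals are raw; many rows marked increased or decreased are still called inactive.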 Names joined by + are all predicted targets of the reagent. The record does not give: the direction of the score.

Gene	PubChem SID	stable siRNA reporter change	stable assay Renilla, run 1 (luminescence)	stable assay firefly, run 1 (luminescence)	Outcome
Non1 (Novel nucleolar protein 1)	SID104185746		8624	4.11e5	inactive
Lcp1 (Larval cuticle protein 1)	SID104187247		5736	4.26e5	inactive
CG17378	SID104182408		8213	4.06e5	inactive
Mul1 (Mitochondrial E3 ubiquitin protein ligase 1)	SID104187966		5799	3.39e5	inactive
Pex3 (Peroxin 3)	SID104190523		8557	3.82e5	inactive
Cbp53E (Calbindin 53E)	SID104187148		10725	4.11e5	inactive
Dop1R2 (Dopamine 1-like receptor 2)	SID104193750		5147	3.67e5	inactive
Dop1R2 (Dopamine 1-like receptor 2)	SID104195171		5784	3.39e5	inactive
CG12589	SID104192007		8654	4.00e5	inactive
Tbcd (Tubulin-binding cofactor D)	SID104180065		9295	4.43e5	inactive
CG11843	SID104194193		7371	3.99e5	inactive
zetaTry (zetaTrypsin)	SID104187512		6251	3.07e5	inactive
CG13994	SID104182118		8088	4.05e5	inactive
CG9631	SID104193929		7755	4.58e5	inactive
CG15236	SID104184762		5699	4.22e5	inactive
CG15236	SID104201159		11212	4.42e5	inactive
CG15236	SID104202382		3783	3.48e5	inactive
COX6AL2 (Cytochrome c oxidase subunit 6A-like 2)	SID104189874		6512	4.08e5	inactive
CG7974	SID104188399		10013	3.47e5	inactive
Tsp42Eg (Tetraspanin 42Eg)	SID104185904		40949	1.48e6	inactive
Edc3 (Enhancer of decapping 3)	SID104190412		6942	3.36e5	inactive
CG10163	SID104189502		7018	4.00e5	inactive
Nup214 (Nucleoporin 214kD)	SID104184213		48243	7.82e5	inactive
GstD2 (Glutathione S transferase D2)	SID104196476		6756	4.09e5	inactive
CG9016	SID104182919		7450	3.43e5	inactive
park (parkin)	SID104191410		9809	3.57e5	inactive
CG34277 + CG31542	SID104201261		9237	4.22e5	inactive
CG3650	SID104184193		6274	3.93e5	inactive
fs(1)Yb (female sterile (1) Yb)	SID104198569		6184	4.02e5	inactive
Ir94e (Ionotropic receptor 94e)	SID104195021		4536	3.97e5	inactive
inaF-C	SID104198694		4375	2.79e5	inactive
Agpat1 (1-Acylglycerol-3-phosphate O-acyltransferase 1)	SID104199671		5840	4.11e5	inactive
Agpat1 (1-Acylglycerol-3-phosphate O-acyltransferase 1)	SID104199672		5915	4.29e5	inactive
CG31128	SID104193467		4787	4.01e5	inactive
CG9471	SID104196291		6122	3.14e5	inactive
Rab19	SID104191052		5387	4.78e5	inactive
zfh1 (Zn finger homeodomain 1)	SID104193806		4870	2.47e5	inactive
zfh1 (Zn finger homeodomain 1)	SID104196890		5732	2.76e5	inactive
CG33140	SID104185822		51248	1.60e6	inactive
CG10793	SID104197552		7199	4.46e5	inactive
CG34160	SID104180923		5171	3.62e5	inactive
CG31820	SID104201105		9059	5.79e5	inactive
CG4757	SID104193922		5482	3.46e5	inactive
Phk-3 (Pherokine 3)	SID104184339		6350	5.12e5	inactive
CG8461	SID104196216		8864	6.62e5	inactive
Vha36-3 (Vacuolar H[+] ATPase 36kD subunit 3)	SID104198407		6822	4.78e5	inactive
Snoo (Sno oncogene)	SID104180800		4223	3.30e5	inactive
Snoo (Sno oncogene)	SID104182796		83904	2.13e5	inactive
Snoo (Sno oncogene)	SID104182827		6650	3.32e5	inactive
Sras (severas)	SID104191079		5876	4.45e5	inactive
Asator	SID104196928		5978	2.97e5	inactive
Gnpat (Glyceronephosphate O-acyltransferase)	SID104196752		5859	3.15e5	inactive
Swt1 (Swt1 RNA endoribonuclease)	SID104199820		6759	4.47e5	inactive
ash1 (absent, small, or homeotic discs 1)	SID104191117		7227	3.31e5	inactive
CG13724	SID104189845		6706	4.32e5	inactive
Ir67c (Ionotropic receptor 67c)	SID104201667		10153	6.51e5	inactive
CG17660	SID104180305		3.84e5	2.37e5	inactive
Prps (Phosphoribosyl pyrophosphate synthetase)	SID104188786	reporter ratio lowered past the hit cutoff	2352	3.18e5	inactive
Prps (Phosphoribosyl pyrophosphate synthetase)	SID104190499		3544	2.34e5	inactive
Prps (Phosphoribosyl pyrophosphate synthetase)	SID104190500		3404	2.42e5	inactive
Rac1	SID104188480		3727	3.16e5	inactive
CG18266	SID104182451		12014	4.31e5	inactive
CG8117	SID104199874		6939	6.14e5	inactive
CG8508	SID104196228		8015	4.07e5	inactive
Ptp4E (Protein tyrosine phosphatase 4E)	SID104198493		8384	5.66e5	inactive
Frl (Formin-like)	SID104189092		6127	3.54e5	inactive
Frl (Formin-like)	SID104189819		7861	4.99e5	inactive
Frl (Formin-like)	SID104190508		4468	4.90e5	inactive
CG42490 (retired record)	SID104181441		5175	4.73e5	inactive
mRpS33 (mitochondrial ribosomal protein S33)	SID104194031	reporter ratio lowered past the hit cutoff	5450	4.96e5	inactive
pzg (putzig)	SID104191640		8802	4.07e5	inactive
CG15905	SID104186383		6875	3.93e5	inactive
yl (yolkless)	SID104200179		4740	3.46e5	inactive
for (foraging)	SID104179987		4930	3.58e5	inactive
for (foraging)	SID104180610		22979	2.76e5	inactive
CtsK2 (Cathepsin K2)	SID104186689		8900	3.58e5	inactive
CG6180	SID104182729		12737	4.70e5	inactive
GILT2 (Gamma-interferon-inducible lysosomal thiol reductase 2)	SID104193988		8553	2.95e5	inactive
CG17760	SID104186486		7279	5.22e5	inactive
MBD-like (Methyl-CpG binding domain protein-like)	SID104196788		6044	3.77e5	inactive
Hsp60D (Heat shock protein 60D)	SID104182335		7650	4.16e5	inactive
CG31798	SID104181494		5568	3.01e5	inactive
Vha16-2 (Vacuolar H[+] ATPase 16kD subunit 2)	SID104190665		5963	3.52e5	inactive

Sorted by “stable assay Renilla, run 1 (luminescence)” (lowest first): 8 of the entries above
Gene	PubChem SID	stable siRNA reporter change	stable assay Renilla, run 1 (luminescence)	stable assay firefly, run 1 (luminescence)	Outcome
CG31798	SID104181494		5568	3.01e5	inactive
MBD-like (Methyl-CpG binding domain protein-like)	SID104196788		6044	3.77e5	inactive
CG17760	SID104186486		7279	5.22e5	inactive
Hsp60D (Heat shock protein 60D)	SID104182335		7650	4.16e5	inactive
GILT2 (Gamma-interferon-inducible lysosomal thiol reductase 2)	SID104193988		8553	2.95e5	inactive
CtsK2 (Cathepsin K2)	SID104186689		8900	3.58e5	inactive
CG6180	SID104182729		12737	4.70e5	inactive
for (foraging)	SID104180610		22979	2.76e5	inactive
